Reference: PubChem BioAssay AID2685 (National Center for Advancing Translational Sciences (NCATS), 2010)
This is one part of the list. The main result of the screen is listed elsewhere. These columns were measured beside it and carry no call. The list favours compounds with an active or inconclusive main result. The note in brackets gives the kind of curve behind each potency; many fits are weak.

Test: qHTS Assay for Lipid Storage Modulators in Drosophila S3 Cells;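 as to cell number change: cells counted by Cell Tracker Red CMTPX staining in the red channel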
Details: BODIPY lipid droplet fluorescence, 18-24 h; for cell number change: measured here: cell count max response, cells fed with added oleic acid
Method in brief: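 Laser-scanning cytometry quantifies lipid droplet accumulation (500–530 nm total intensity; droplet/cell object ratio) in oleic acid-fed (400 uM added) Drosophila S3 cells treated with a concentration series. 20 uM Triacsin C defined 100% inhibition.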

[1] = measured here: cell number channel AC50, cells fed with added oleic acid
[2] = measured here: lipid fluorescence (Fed channel) AC50, cells fed with added oleic acid

SMILES	cell number change [%]	AC50 [1]	AC50 [2]
CN(CC(=O)Nc1ccc(F)cc1[N+](=O)[O-])Cc1ccccc1	59.5	29.1 µM [rising, single point]	
Cc1ccc(C(=O)NCc2ccccc2CN2CCCC2)cc1S(=O)(=O)N1CCOCC1	-3.49	6.51 µM [falling, single point]	6.51 µM [falling, single point]
CCCC(=O)N1CCN(c2nnc(-c3ccc(C)cc3)c3ccccc23)CC1	18		
COc1ccc(/C=N/NC(=O)Cc2cc(OC)c(OC)cc2[N+](=O)[O-])cc1			23.1 µM [rising, single point]
O=C1CSC(c2cccc(F)c2)N1c1ccccc1F (centres undefined)	19.5		
COc1ccc(/C=N/NC(=O)C(=O)Nc2ccccn2)cc1OC	7.03		0.116 µM [falling, full curve, poor fit]
O=C(O)c1cc(S(=O)(=O)N2CC3CC3C2C(=O)O)c(Cl)cc1Cl (centres undefined)	1.89		29.1 µM [falling, single point]
CCc1cccc(CC)c1NC(=O)/C(C#N)=C/c1ccccc1C(F)(F)F	-22.7		
CCCC(=O)N1CCN(c2ccc(NC(=O)c3ccc([N+](=O)[O-])o3)cc2Cl)CC1	-47.7		
Cc1ccc(C)c(C(C)NC(=O)c2ccc(Br)o2)c1 (centres undefined)	31.4		
Cc1nnc(SCC(=O)Nc2ccc3c(c2)OCO3)o1	4.64		
Cc1onc(-c2c(F)cccc2Cl)c1C(=O)Nc1ccc(Cl)c(S(=O)(=O)N(C)C)c1	-8.21		29.1 µM [rising, single point]
CC(C)C(=O)Nc1cc(-c2nc3ncccc3o2)ccc1Cl	-4.99		2.31 µM [falling, partial curve]
O=C(Nc1ccc(C2=NCCN2)cc1)c1ccc(C(=O)Nc2ccc(C3=NCCN3)cc2)c(Cl)c1	109	7.31 µM [rising, partial curve]	8.2 µM [rising, partial curve]
COc1ccc(-n2nnnc2SCC(=O)Nc2cccc(C)n2)cc1OC	0.794		2.06 µM [rising, full curve]
C=CCSc1nc2sc3c(c2c(=O)n1-c1ccccc1)CCN(C)C3	-4.76		0.00461 µM [falling, full curve, poor fit]
O=C1N(c2ccccc2)C[C@@H]2C[C@@H](c3cc4ccccc4o3)N3CCC[C@@]123	-22		29.1 µM [falling, single point]
COc1cccc(CNC(=O)C2CCN(C(=O)N3CC(C)Oc4ccccc43)CC2)c1 (centres undefined)	-0.865		29.1 µM [falling, single point]
COC(=O)c1ccc(OCC(=O)N2CCCc3ccccc32)cc1	26.2		1.16 µM [falling, single point]
O=C(Cn1nnc(-c2ccccc2F)n1)NCCc1ccccc1	-34.7	14.6 µM [falling, partial curve]	0.651 µM [falling, single point]

Ordered by molecular weight (high to low): some entries from above.
SMILES	cell number change [%]	AC50 [1]	AC50 [2]
Cc1onc(-c2c(F)cccc2Cl)c1C(=O)Nc1ccc(Cl)c(S(=O)(=O)N(C)C)c1	-8.21		29.1 µM [rising, single point]
Cc1ccc(C(=O)NCc2ccccc2CN2CCCC2)cc1S(=O)(=O)N1CCOCC1	-3.49	6.51 µM [falling, single point]	6.51 µM [falling, single point]
COc1cccc(CNC(=O)C2CCN(C(=O)N3CC(C)Oc4ccccc43)CC2)c1 (centres undefined)	-0.865		29.1 µM [falling, single point]
COc1ccc(-n2nnnc2SCC(=O)Nc2cccc(C)n2)cc1OC	0.794		2.06 µM [rising, full curve]
O=C(O)c1cc(S(=O)(=O)N2CC3CC3C2C(=O)O)c(Cl)cc1Cl (centres undefined)	1.89		29.1 µM [falling, single point]
COc1ccc(/C=N/NC(=O)Cc2cc(OC)c(OC)cc2[N+](=O)[O-])cc1			23.1 µM [rising, single point]
O=C1N(c2ccccc2)C[C@@H]2C[C@@H](c3cc4ccccc4o3)N3CCC[C@@]123	-22		29.1 µM [falling, single point]
COC(=O)c1ccc(OCC(=O)N2CCCc3ccccc32)cc1	26.2		1.16 µM [falling, single point]
Cc1ccc(C)c(C(C)NC(=O)c2ccc(Br)o2)c1 (centres undefined)	31.4		
CC(C)C(=O)Nc1cc(-c2nc3ncccc3o2)ccc1Cl	-4.99		2.31 µM [falling, partial curve]

Following part

SMILES	cell number change [%]	AC50 [1]	AC50 [2]
O=S(=O)(NCCc1cccs1)c1ccc(Br)cc1	15.8		35.5 µM [rising, single point]
COC(=O)c1cc(Cl)c(NC(=O)/C=C/c2ccc(Cl)cc2)cc1OC			29.1 µM [rising, single point]
O=C(CCS(=O)(=O)c1cc2c(cc1Cl)NC(=O)CO2)NCc1ccccc1	24.2		0.13 µM [rising, full curve, poor fit]
Cc1cc2c(c(SCC#N)n1)C(=O)OC2	-20.5	6.51 µM [falling, single point]	6.51 µM [falling, single point]
c1ccc(Nc2nc(-c3ccccc3)nc3ccccc23)cc1	-13.1		0.13 µM [rising, full curve, poor fit]
CC(C)Oc1ccccc1/C=N/Nc1ccccc1[N+](=O)[O-]	-89.6	16.4 µM [falling, partial curve]	1.03 µM [rising, single point]
O=C(NC1CCCc2ccccc21)c1ccccc1OC(F)F (centres undefined)	-2.17		0.00461 µM [rising, full curve, poor fit]
CCN(CC)C1CCN(C(=O)c2ccc3nc(Cc4ccc(OC)cc4)oc3c2)C1 (centres undefined)	9.13		0.206 µM [rising, partial curve]
CC(=O)c1ccc(NC(=O)CO/N=C(\C)c2cccs2)cc1	33.8	29.1 µM [rising, single point]	
O=C(Nc1ccc2c(c1)OCO2)C1CCCCC1	-0.552		1.46 µM [rising, partial curve]
COc1cccc(-n2c(Cc3cc(=O)[nH]c(=O)[nH]3)nnc2SCC(=O)N2CCCC2)c1	-41.2	29.1 µM [falling, single point]	
COc1ccc(-c2c(-c3ccccc3OC)oc3ccccc23)cn1	-7.24		16.4 µM [falling, single point]
O=C(/C=C/c1cccc(F)c1)OCC(=O)N1CCCc2ccccc21			3.26 µM [rising, partial curve]
Cc1ccc(S(=O)(=O)N(CC(O)CN(C)C)c2ccccc2)cc1 (centres undefined)	-33.1	0.0206 µM [falling, full curve, poor fit]	14.6 µM [falling, partial curve, poor fit]
CN(Cc1ccco1)C(=O)CN1C(=O)NC(c2ccccc2)(c2ccccc2)C1=O	50	0.517 µM [rising, full curve]	
CCc1noc(C)c1C(=O)Nc1ccc(S(=O)(=O)N2CCCCC2)cc1	15.1		14.6 µM [rising, partial curve]
CCCC[C@H]1COCCS(=O)(=O)N1Cc1cccc(Cl)c1	-14.9		
O=C(N/N=C/c1cccc(OCc2ccccc2)c1)c1cccs1	-8.49		
CC(C)(C)NC(=O)c1ccccc1-c1nc2ccccc2s1	-6.89		0.184 µM [falling, full curve, poor fit]
Cn1c(=O)c2c(nc(Br)n2CC(=O)c2cccs2)n(C)c1=O		0.146 µM [rising, full curve]	
